Papp B→A data for one molecule are collected here from US11191761B2, “SOMCL-9112 solid dispersion and preparation method thereof and SOMCL-9112 solid preparation containing SOMCL-9112 solid dispersion” (SHANGHAI INSTITUTE OF MATERIA MEDICA, CHINESE ACADEMY OF …, priority 2015, dated 2021).

The nature of the series: Permeability test using Caco-2 cell model. The settings on record: human. Here is the method: Permeability Test: The permeability of SOMCL-9112 was evaluated using Caco-2 cell model.
(In general: Caco-2 monolayers are a common model of the intestinal barrier.)

Regarding `CC(C)NCC(O)COc1ccc(CC(N)=O)cc1` (stereo not shown) [Atenolol, reference compound], the apparent permeability from basolateral to apical (Papp B→A) (usually how fast a substance crosses the layer from the basolateral side) turned out to be 1.16 ± 0.17 ×10⁻⁶ cm/s.
